Results are given in words; binding and its absence hold for the method and conditions named. In cells and extracts the contact can be indirect. Some entries that bind do so weakly or less than the wild type.
Biological target: endogenous GRP78 of mouse embryonal carcinoma P19 cells (mouse) (UniProt P20029)
Experiment: co-immunoprecipitation of endogenous proteins from surface-biotinylated P19 cells

By UniProt entry, the sequences of proteins in these tests, tags left out. Residues count along the entry.
UniProt P20029, residues 20-655: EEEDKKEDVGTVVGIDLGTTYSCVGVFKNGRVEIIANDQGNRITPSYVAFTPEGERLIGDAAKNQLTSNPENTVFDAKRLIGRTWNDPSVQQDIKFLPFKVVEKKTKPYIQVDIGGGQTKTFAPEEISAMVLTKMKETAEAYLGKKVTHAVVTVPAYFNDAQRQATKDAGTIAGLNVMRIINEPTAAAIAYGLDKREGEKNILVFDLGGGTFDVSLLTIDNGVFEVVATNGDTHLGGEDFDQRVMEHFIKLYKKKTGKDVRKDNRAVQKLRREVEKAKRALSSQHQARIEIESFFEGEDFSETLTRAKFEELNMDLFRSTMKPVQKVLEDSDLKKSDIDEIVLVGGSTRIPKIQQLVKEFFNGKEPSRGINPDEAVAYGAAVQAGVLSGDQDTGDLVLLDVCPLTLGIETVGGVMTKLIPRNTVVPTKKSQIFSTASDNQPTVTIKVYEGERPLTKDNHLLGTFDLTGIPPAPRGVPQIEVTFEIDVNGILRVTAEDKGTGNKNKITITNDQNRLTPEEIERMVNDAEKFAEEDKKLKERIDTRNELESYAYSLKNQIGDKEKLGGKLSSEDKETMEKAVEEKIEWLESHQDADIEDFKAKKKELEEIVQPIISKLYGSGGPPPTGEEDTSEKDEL
UniProt P51865, residues 18-134: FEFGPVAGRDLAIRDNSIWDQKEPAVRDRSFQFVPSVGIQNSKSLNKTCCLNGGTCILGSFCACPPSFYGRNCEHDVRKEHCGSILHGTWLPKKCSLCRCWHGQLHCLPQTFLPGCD

binding: binds
Substance: endogenous Cripto of mouse embryonal carcinoma P19 cells (from UniProt P51865 18-134) (ligand)

Reference: US20100135904A1
